Values joined by “and” are separate entries in the source; they are usually repeats but may differ in a detail not shown here. Identical values can stand only once. Among all 410,000 compounds or so, about 18,000 (4.4%) were called active. This list was built around the results that the source calls inconclusive (neither active nor inactive); the mix of calls is not that of the screen. Rule as the data show it: active = activity change below about -60%; inconclusive = no clear call, values can overlap the other calls; inactive = above about -39%.
experiment: qHTS Assay for inhibitors of the human cytomegalovirus (HCMV); settings: HFF cells, HCMV-luciferase reporter, 72 h; at 57.5 µM; stronger effect = lower value
Description: NCGC Assay Overview: Infection with human cytomegalovirus (HCMV) continues to pose significant threats for pregnant women and immunocompromised hosts. HCMV causes serious morbidity and mortality in transplant recipients, and congenital HCMV is the leading infectious cause of mental retardation and deafness in children. In the 1990s, the annual costs associated with the disease burden of congenital CMV were estimated at around $2 billion. A HCMV vaccine is not available yet and HCMV therapies result in intolerable side effects and emergence of drug resistant viruses. […] Towards this goal we have developed and characterized a luciferase HCMV reporter that was initially used in 96 well plates and then optimized to 1536-well plates for utilization in screening of the MLSMR collection, the NGCG diversity collection and the NCGC Pharmaceutical Collection of approved and investigational drugs.
NCGC Assay Protocol Summary:
This is a cell-based assay for HCMV inhibition in HFFs cells. The screening used 2 compound doses and the HCMV-luciferase at MOI of 1 PFU/cell. Cells were treated and infected with HCMV. At 72 h post infection cell lysates were collected and luciferase activity was determined using the Glomax-Multi + Detection System (Promega, Madison, WI). Data were normalized to the controls for basal activity (buffer only) and known HCMV inhibitors Salinmoycin.
1536-well assay protocol for the assay:
(1) Add 3 ul CMV/HFF cell culture. 1000 cells/well in DMEM nirmal media.
(2) Incubate 16 hr at 37C.
(3) Add 23 nl control compound, 10uM of Salinomycin.
(4) Add 23 nl compounds in DMSO solution.
(5) Add 3 ul CMV suspension. Final 1 puf/ul, Virus stock 2000pfu/ul
(6) Incubate 72 hrs at 37C.
(7) Add 4 ul OneGlo Luc Reagent.
(8) Incubate 5 min at room temperature.
% is scaled to controls: 0 for no effect and ±100 for the full control effect.

SMILES	activity change, negative = inhibition
CCCc1cc(NCC2CCCO2)n2c(nc3ccccc32)c1C#N (stereo not drawn)	inactive: -5.04%
O=C(Cc1ccc(Br)cc1)Nc1nc2ccccc2[nH]1	inconclusive: -43.3%
O=C(Nc1ccc(C(F)(F)F)cc1)C1CCN(c2cnccn2)CC1	inconclusive: -56.5% and inconclusive: -52.1%
S=c1[nH]nc(C2CC2)n1Cc1ccccc1	inconclusive: -46.6%
COC(=O)[C@@]1(Cc2ccc(F)cc2)[C@H]2c3cc(C(=O)N(C)C)n(Cc4ccc(Cl)c(C(F)(F)F)c4)c3C[C@H]2CN1C(=O)c1ccccc1	inactive: -25.1%
O=C(Nc1cccnc1)c1ccc(NS(=O)(=O)c2cc([N+](=O)[O-])ccc2Cl)cc1	inconclusive: -40.7%
O=C(Nc1cccc2ncccc12)c1ccc(-c2ccc(Br)cc2)o1	inactive: 17.9%
N/C(=N\O)c1ccc([N+](=O)[O-])s1	inactive: 1.07%
CSc1ccc(CCNC(=O)c2ccc(CS(=O)Cc3ccccc3Cl)o2)cc1 (stereo not drawn)	inconclusive: -56.8%
CCn1c(=NC(=O)CS(=O)(=O)c2ccccc2)sc2cccc(OC)c21	inconclusive: -55.5%
Cc1cc(O)c(-c2cc(C(=O)Nc3ccc(S(=O)(=O)N4CCOCC4)cc3)[nH]n2)cc1C	inconclusive: -52.3%
CCn1c(CCNC(=O)c2ccc(Cl)c(Cl)c2)nnc1SCCOc1ccc(OC)cc1	active: -64.9%
NC(=O)CSc1nc2scc(-c3ccc(Cl)cc3)c2c(=O)n1Cc1ccccc1	inconclusive: -40.7%
CCN(CC)C(=O)c1cn(CCC#N)nc1-c1ccc2ccccc2c1	inactive: 29.3%
C=CCN=c1scc(-c2ccccc2)n1/N=C/c1ccccn1	active: -100% and active: -99.3%
CCc1ccc(-c2cc3c(=O)n(CC(=O)NCc4ccccc4F)ncn3n2)cc1	inconclusive: -46.7%
CN(C)c1ccc(C(=O)N[C@H]2CC[C@@]34CCCN3C(=O)CCC[C@H]4[C@H]2Cc2ccccc2)cc1	inactive: -32.3%
CCCN1C(=O)/C(=C/c2ccc(C)o2)SC1=Nc1ccc(OCC)cc1	inactive: 4.58%
CCN(CC)C(=O)CSc1nnc(-c2ccccc2)c(-c2ccccc2)n1	inconclusive: -44.5%
CC1(c2nnc(-c3cccc(Cl)c3)o2)CC(c2ccccc2Br)=NO1 (stereo not drawn)	inconclusive: -44.6%
COc1cc(C(=O)NC2CC(C)(C)CC(C)(C)C2)ccc1OC1CCN(C(C)=O)CC1	inconclusive: -44.6%
C=CCn1c(COc2ccccc2)nc2ccccc21	inactive: -18.8%

SMILES	activity change, negative = inhibition
CN(C)S(=O)(=O)c1cccc(N=C2NN=C(c3ccccc3)CS2)c1	inconclusive: -50.8%
C=C1CCC[C@]2(C)C[C@H]3OC(=O)C(CN4CCCCC4CO)[C@H]3CC12 (stereo partly drawn)	active: -92.1%
COc1ccc(OCCOC(=O)CNC(=O)c2ccc(F)cc2)cc1	inconclusive: -43.7%
Cc1ccc(-c2nnc(Nc3ccc(OCC(N)=O)cc3)c3ccccc23)cc1S(=O)(=O)N(C)C	inconclusive: -46%
COc1ccc(N(CC(=O)Nc2ccccc2F)S(=O)(=O)c2ccc(C)c([N+](=O)[O-])c2)cc1	inconclusive: -44.2%
CC(C)NC(=O)c1cc2cc([N+](=O)[O-])ccc2s1	inconclusive: -46.8%
Cc1ccc(Cn2nc(-c3ccccc3)nc2-c2ccccc2)cc1	inactive: 136%
COc1ccc(C)cc1NC(=O)c1cccc(-c2ccc(OC(C)=O)cc2)c1	inconclusive: -44.5%
COc1ccc(OCc2nc3c4c(ncn3n2)-c2ccccc2CC42CCCC2)cc1	inconclusive: -41.3%
CCC(=O)N1CCc2cc(CNS(=O)(=O)c3ccc(NC(=O)CC(C)C)cc3)ccc21	inconclusive: -49.7%
COc1cccc2c1Oc1ncccc1N(C(=O)CCC(=O)NC(C)C)C2	inactive: -0.104%
C=CCN1C(=O)/C(=C/c2ccc(OC(C)=O)c(OCC)c2[N+](=O)[O-])SC1=S	active: -98.7%
COc1ccc(CC(=O)N(C)Cc2cccc(F)c2)cc1S(=O)(=O)N1CCOCC1	inconclusive: -41.5%
O=C(NCc1ccccc1Cl)c1ccc(CS(=O)Cc2ccc(Cl)cc2)o1 (stereo not drawn)	inconclusive: -42.6%
O=C(O)CCCNC(=O)/C(=C\c1ccc(Cl)cc1)NC(=O)c1ccc(Br)cc1	inconclusive: -41.6%
CCOc1ccccc1NC(=O)c1c(NCc2cccs2)sc2c1CCCCC2	inconclusive: -42.2%
CCOC(=O)c1c(NC(=O)/C(C#N)=C/c2ccccc2)sc2c1CCC2	inactive: 2.23%
S=C(NCCNC(=S)Nc1ccccc1Cl)Nc1ccccc1Cl	inconclusive: -41.8%
Nc1ccc(C(=O)Nc2cccc3ncccc23)cc1	inactive: 8.64%
O=C(NNC(=O)c1cccs1)c1ccc(Cl)nc1	inactive: 1.67%
CC1Cc2cc(S(=O)(=O)N3CCN(c4ccccc4)CC3)ccc2N1C(=O)C1CC1 (stereo not drawn)	inconclusive: -42.8%

Reference: PubChem BioAssay AID1259415 (National Center for Advancing Translational Sciences (NCATS), 2018)
